# From the supplement of paper PMC8728848
# Some of the results follow.
# Tests used:
# Experiment in all cases: glycan array binding signal (z-score within array); higher = stronger binding
# Details in all cases: glycan notation: IUPAC condensed, linker removed
# GlcNAc(b1-3)Gal(b1-4)Glc = biological target: GlcNAc(b1-3)Gal(b1-4)Glc
# Outline: (§1)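 Negative Z-scores can be read as non-binding. The Z-score is calculated within each array and then averaged across arrays of one protein sequence at different concentrations or buffers and across linkers. Arrays, 3228 in all, were curated from the Consortium for Functional Glycomics database and kept only where the protein sequence was available.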
# [1] = biological target: GlcNAc(b1-3)Gal(b1-4)GlcNAc
# Outline: as §1
# [2] = biological target: GlcNAc(b1-3)Gal(b1-4)GlcNAc(b1-2)Man(a1-3)[GlcNAc(b1-3)Gal(b1-4)GlcNAc(b1-2)Man(a1-6)]Man(b1-4)GlcNAc(b1-4)GlcNAc
# Outline: as §1
# [3] = biological target: GlcNAc(b1-3)Gal(b1-4)GlcNAc(b1-2)Man(a1-3)[GlcNAc(b1-3)Gal(b1-4)GlcNAc(b1-2)Man(a1-6)]Man(b1-4)GlcNAc(b1-4)[Fuc(a1-6)]GlcNAc
# Outline: as §1
# [4] = biological target: GlcNAc(b1-3)Gal(b1-4)GlcNAc(b1-2)[GlcNAc(b1-3)Gal(b1-4)GlcNAc(b1-6)]Man(a1-6)[GlcNAc(b1-3)Gal(b1-4)GlcNAc(b1-2)Man(a1-3)]Man(b1-4)GlcNAc(b1-4)GlcNAc
# Outline: as §1
# [5] = biological target: GlcNAc(b1-3)Gal(b1-4)GlcNAc(b1-3)Gal(b1-4)GlcNAc
# Outline: as §1
# [6] = biological target: GlcNAc(b1-3)Gal(b1-4)GlcNAc(b1-3)Gal(b1-4)GlcNAc(b1-2)Man(a1-3)[GlcNAc(b1-3)Gal(b1-4)GlcNAc(b1-3)Gal(b1-4)GlcNAc(b1-2)Man(a1-6)]Man(b1-4)GlcNAc(b1-4)GlcNAc
# Outline: as §1
# [7] = biological target: GlcNAc(b1-3)Gal(b1-4)GlcNAc(b1-3)Gal(b1-4)GlcNAc(b1-2)Man(a1-3)[GlcNAc(b1-3)Gal(b1-4)GlcNAc(b1-3)Gal(b1-4)GlcNAc(b1-2)Man(a1-6)]Man(b1-4)GlcNAc(b1-4)[Fuc(a1-6)]GlcNAc
# Outline: as §1
# [8] = biological target: GlcNAc(b1-3)Gal(b1-4)GlcNAc(b1-3)Gal(b1-4)GlcNAc(b1-2)[GlcNAc(b1-3)Gal(b1-4)GlcNAc(b1-3)Gal(b1-4)GlcNAc(b1-6)]Man(a1-6)[GlcNAc(b1-3)Gal(b1-4)GlcNAc(b1-3)Gal(b1-4)GlcNAc(b1-2)Man(a1-3)]Man(b1-4)GlcNAc(b1-4)[Fuc(a1-6)]GlcNAc
# Outline: as §1
# [9] = biological target: GlcNAc(b1-3)Gal(b1-4)GlcNAc(b1-3)Gal(b1-4)GlcNAc(b1-3)Gal(b1-4)GlcNAc(b1-2)Man(a1-3)[GlcNAc(b1-3)Gal(b1-4)GlcNAc(b1-3)Gal(b1-4)GlcNAc(b1-3)Gal(b1-4)GlcNAc(b1-2)Man(a1-6)]Man(b1-4)GlcNAc(b1-4)GlcNAc
# Outline: as §1
# [10] = biological target: GlcNAc(b1-3)Gal(b1-4)GlcNAc(b1-3)Gal(b1-4)GlcNAc(b1-3)Gal(b1-4)GlcNAc(b1-2)Man(a1-3)[GlcNAc(b1-3)Gal(b1-4)GlcNAc(b1-3)Gal(b1-4)GlcNAc(b1-3)Gal(b1-4)GlcNAc(b1-2)Man(a1-6)]Man(b1-4)GlcNAc(b1-4)[Fuc(a1-6)]GlcNAc
# Outline: as §1
# [11] = biological target: GlcNAc(b1-3)Gal(b1-4)GlcNAc(b1-3)Gal(b1-4)GlcNAc(b1-3)Gal(b1-4)GlcNAc(b1-2)[GlcNAc(b1-3)Gal(b1-4)GlcNAc(b1-3)Gal(b1-4)GlcNAc(b1-3)Gal(b1-4)GlcNAc(b1-6)]Man(a1-6)[GlcNAc(b1-3)Gal(b1-4)GlcNAc(b1-3)Gal(b1-4)GlcNAc(b1-3)Gal(b1-4)GlcNAc(b1-2)Man(a1-3)]Man(b1-4)GlcNAc(b1-4)[Fuc(a1-6)]GlcNAc
# Outline: as §1
# [12] = biological target: GlcNAc(b1-3)Gal(b1-4)GlcNAc(b1-3)Gal(b1-4)GlcNAc(b1-3)Gal(b1-4)GlcNAc(b1-3)Gal(b1-4)GlcNAc(b1-2)Man(a1-3)[GlcNAc(b1-3)Gal(b1-4)GlcNAc(b1-3)Gal(b1-4)GlcNAc(b1-3)Gal(b1-4)GlcNAc(b1-3)Gal(b1-4)GlcNAc(b1-2)Man(a1-6)]Man(b1-4)GlcNAc(b1-4)GlcNAc
# Outline: as §1
# [13] = biological target: GlcNAc(b1-3)Gal(b1-4)GlcNAc(b1-3)Gal(b1-4)GlcNAc(b1-3)Gal(b1-4)GlcNAc(b1-3)Gal(b1-4)GlcNAc(b1-2)Man(a1-3)[GlcNAc(b1-3)Gal(b1-4)GlcNAc(b1-3)Gal(b1-4)GlcNAc(b1-3)Gal(b1-4)GlcNAc(b1-3)Gal(b1-4)GlcNAc(b1-2)Man(a1-6)]Man(b1-4)GlcNAc(b1-4)[Fuc(a1-6)]GlcNAc
# Outline: as §1
# [14] = biological target: GlcNAc(b1-3)Gal(b1-4)GlcNAc(b1-3)Gal(b1-4)GlcNAc(b1-3)Gal(b1-4)GlcNAc(b1-3)Gal(b1-4)GlcNAc(b1-2)[GlcNAc(b1-3)Gal(b1-4)GlcNAc(b1-3)Gal(b1-4)GlcNAc(b1-3)Gal(b1-4)GlcNAc(b1-3)Gal(b1-4)GlcNAc(b1-6)]Man(a1-6)[GlcNAc(b1-3)Gal(b1-4)GlcNAc(b1-3)Gal(b1-4)GlcNAc(b1-3)Gal(b1-4)GlcNAc(b1-3)Gal(b1-4)GlcNAc(b1-2)Man(a1-3)]Man(b1-4)GlcNAc(b1-4)[Fuc(a1-6)]GlcNAc
# Outline: as §1
# [15] = biological target: GlcNAc(b1-3)Gal(b1-4)GlcNAc(b1-3)Gal(b1-4)GlcNAc(b1-3)GalNAc
# Outline: as §1
# [16] = biological target: GlcNAc(b1-3)Gal(b1-4)GlcNAc(b1-3)GalNAc
# Outline: as §1
# [17] = biological target: GlcNAc(b1-3)Gal(b1-4)GlcNAc(b1-3)[GlcNAc(b1-3)Gal(b1-4)GlcNAc(b1-3)]GalNAc
# Outline: as §1
# [18] = biological target: GlcNAc(b1-3)Gal(b1-4)GlcNAc(b1-6)[Gal(b1-3)]GalNAc
# Outline: as §1
# [19] = biological target: GlcNAc(b1-3)Gal(b1-4)GlcNAc(b1-6)[GlcNAc(b1-3)Gal(b1-3)]GalNAc
# Outline: as §1
# [20] = biological target: GlcNAc(b1-3)Gal(b1-4)GlcNAc(b1-6)[GlcNAc(b1-3)]Gal(b1-4)GlcNAc
# Outline: as §1
# GlcNAc(b1-3)GalNAc = biological target: GlcNAc(b1-3)GalNAc
# Outline: as §1
# GlcNAc(b1-3)Man = biological target: GlcNAc(b1-3)Man
# Outline: as §1
# [21] = biological target: GlcNAc(b1-3)[GlcNAc(b1-4)][GlcNAc(b1-6)]GlcNAc
# Outline: as §1
# [22] = biological target: GlcNAc(b1-3)[GlcNAc(b1-6)]Gal(b1-4)GlcNAc
# Outline: as §1
# [23] = biological target: GlcNAc(b1-3)[GlcNAc(b1-6)]GalNAc
# Outline: as §1
# [24] = biological target: GlcNAc(b1-4)Gal(b1-4)GlcNAc
# Outline: as §1
# GlcNAc(b1-4)GlcNAc = biological target: GlcNAc(b1-4)GlcNAc
# Outline: as §1
# [25] = biological target: GlcNAc(b1-4)GlcNAc(b1-4)GlcNAc
# Outline: as §1
# [26] = biological target: GlcNAc(b1-4)GlcNAc(b1-4)GlcNAc(b1-4)GlcNAc(b1-4)GlcNAc
# Outline: as §1
# [27] = biological target: GlcNAc(b1-4)GlcNAc(b1-4)GlcNAc(b1-4)GlcNAc(b1-4)GlcNAc(b1-4)GlcNAc
# Outline: as §1
# [28] = biological target: GlcNAc(b1-4)[GlcNAc(b1-6)]GalNAc
# Outline: as §1
# [29] = biological target: GlcNAc(b1-6)Gal(b1-4)GlcNAc
# Outline: as §1
# GlcNAc(b1-6)GalNAc = biological target: GlcNAc(b1-6)GalNAc
# Outline: as §1
# [30] = biological target: GlcNAc6S(b1-3)Gal(b1-4)GlcNAc
# Outline: as §1
# Kdn(a2-3)Gal(b1-3)GalNAc = biological target: Kdn(a2-3)Gal(b1-3)GalNAc
# Outline: as §1
# Kdn(a2-3)Gal(b1-3)GlcNAc = biological target: Kdn(a2-3)Gal(b1-3)GlcNAc
# Outline: as §1
binder,measurement,setting,value
RobpsCRA (Robinia pseudoacacia) (protein) IKGGYWYSGSGLAVSDINPSHFTHLFCAFADLDPNTNKLTISSSNAAAFSTFTQTVRAKNPSVKTLLSIGGGGGRALAAVFANMASQASRRKSFIDSSIQLARRNNFHGLDLDWEYPSSDIDKTNFASLIREWRAAVATESSTSGTPALLLSAAVGGSDQITPLKYYPGEAIANNLDWVNVMTYDLYTSDSYPTLTQPPAPLFYPRGIFSADEGITKWIQSGVPESKLALGLPFYGFKWRLSDPNNHGLFAPATQGLGAVKYKDIVNTGGQVEFDSTYVTNYCFKGTDWYGYDDTQSISAKVAYAKQRGLFGYFAWHIEQDSNWALS,glycan array binding signal (z-score),GlcNAc(b1-3)Gal(b1-4)Glc,-0.681
same,glycan array binding signal (z-score),[1],0.602
same,glycan array binding signal (z-score),[2],-0.142
same,glycan array binding signal (z-score),[3],0.229
same,glycan array binding signal (z-score),[4],1.5
same,glycan array binding signal (z-score),[5],0.172
same,glycan array binding signal (z-score),[6],0.567
same,glycan array binding signal (z-score),[7],0.104
same,glycan array binding signal (z-score),[8],1.11
same,glycan array binding signal (z-score),[9],0.549
same,glycan array binding signal (z-score),[10],0.895
same,glycan array binding signal (z-score),[11],0.346
same,glycan array binding signal (z-score),[12],-0.064
same,glycan array binding signal (z-score),[13],-0.454
same,glycan array binding signal (z-score),[14],1.28
same,glycan array binding signal (z-score),[15],-0.291
same,glycan array binding signal (z-score),[16],-0.874
same,glycan array binding signal (z-score),[17],0.089
same,glycan array binding signal (z-score),[18],0.859
same,glycan array binding signal (z-score),[19],0.16
same,glycan array binding signal (z-score),[20],-0.361
same,glycan array binding signal (z-score),GlcNAc(b1-3)GalNAc,-0.205
same,glycan array binding signal (z-score),GlcNAc(b1-3)Man,-0.583
same,glycan array binding signal (z-score),[21],0.848
same,glycan array binding signal (z-score),[22],0.108
same,glycan array binding signal (z-score),[23],-0.507
same,glycan array binding signal (z-score),[24],-0.76
same,glycan array binding signal (z-score),GlcNAc(b1-4)GlcNAc,-0.199
same,glycan array binding signal (z-score),[25],0.264
same,glycan array binding signal (z-score),[26],0.011
same,glycan array binding signal (z-score),[27],-0.175
same,glycan array binding signal (z-score),[28],-0.134
same,glycan array binding signal (z-score),[29],-0.959
same,glycan array binding signal (z-score),GlcNAc(b1-6)GalNAc,-0.383
same,glycan array binding signal (z-score),[30],-0.663
same,glycan array binding signal (z-score),Kdn(a2-3)Gal(b1-3)GalNAc,-0.273
same,glycan array binding signal (z-score),Kdn(a2-3)Gal(b1-3)GlcNAc,-0.429

# Rewritten bar-delimited: part of the list above.
binder | measurement | setting | value
RobpsCRA (Robinia pseudoacacia) (protein) IKGGYWYSGSGLAVSDINPSHFTHLFCAFADLDPNTNKLTISSSNAAAFSTFTQTVRAKNPSVKTLLSIGGGGGRALAAVFANMASQASRRKSFIDSSIQLARRNNFHGLDLDWEYPSSDIDKTNFASLIREWRAAVATESSTSGTPALLLSAAVGGSDQITPLKYYPGEAIANNLDWVNVMTYDLYTSDSYPTLTQPPAPLFYPRGIFSADEGITKWIQSGVPESKLALGLPFYGFKWRLSDPNNHGLFAPATQGLGAVKYKDIVNTGGQVEFDSTYVTNYCFKGTDWYGYDDTQSISAKVAYAKQRGLFGYFAWHIEQDSNWALS | glycan array binding signal (z-score) | [16] | -0.874
same | glycan array binding signal (z-score) | [17] | 0.089
